These are yes or no findings as the source states them, for the method shown. Binding seen in cells or lysates may run through a third protein. Some results given as binding are weak or reduced against the parent protein; the word gives no strength.

The experiment has as its target T1, transcription factor 7-like 2 (mouse (endogenous in STC-1)), Q924A0.
T1 chain: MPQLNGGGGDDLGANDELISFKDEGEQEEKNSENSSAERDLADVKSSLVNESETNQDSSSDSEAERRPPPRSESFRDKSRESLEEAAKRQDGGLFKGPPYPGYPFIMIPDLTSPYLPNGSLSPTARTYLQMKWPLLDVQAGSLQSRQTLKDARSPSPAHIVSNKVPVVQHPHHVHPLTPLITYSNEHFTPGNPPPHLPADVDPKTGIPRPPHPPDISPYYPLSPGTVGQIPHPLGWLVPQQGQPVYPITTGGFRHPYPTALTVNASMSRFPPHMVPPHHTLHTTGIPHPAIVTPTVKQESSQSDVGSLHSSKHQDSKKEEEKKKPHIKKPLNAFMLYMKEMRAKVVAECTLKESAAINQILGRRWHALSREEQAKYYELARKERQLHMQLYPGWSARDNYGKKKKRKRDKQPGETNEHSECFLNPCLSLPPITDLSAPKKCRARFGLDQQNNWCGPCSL
The experiment is described as follows: co-IP; lysates of 4 x 10^5 STC-1 cells transfected with miR-194 inhibitor or NC; anti-TCF7L2 antibody 12 h, Protein A/G PLUS agarose 6 h; western blot for β-catenin; both proteins endogenous. As to conditions: remark: other sources report otherwise. On the technique in general: In western blotting, separated proteins are transferred to a membrane and probed.

B1: beta-catenin, Q02248 1-781 (protein)
chain: MATQADLMELDMAMEPDRKAAVSHWQQQSYLDSGIHSGATTTAPSLSGKGNPEEEDVDTSQVLYEWEQGFSQSFTQEQVADIDGQYAMTRAQRVRAAMFPETLDEGMQIPSTQFDAAHPTNVQRLAEPSQMLKHAVVNLINYQDDAELATRAIPELTKLLNDEDQVVVNKAAVMVHQLSKKEASRHAIMRSPQMVSAIVRTMQNTNDVETARCTAGTLHNLSHHREGLLAIFKSGGIPALVKMLGSPVDSVLFYAITTLHNLLLHQEGAKMAVRLAGGLQKMVALLNKTNVKFLAITTDCLQILAYGNQESKLIILASGGPQALVNIMRTYTYEKLLWTTSRVLKVLSVCSSNKPAIVEAGGMQALGLHLTDPSQRLVQNCLWTLRNLSDAATKQEGMEGLLGTLVQLLGSDDINVVTCAAGILSNLTCNNYKNKMMVCQVGGIEALVRTVLRAGDREDITEPAICALRHLTSRHQEAEMAQNAVRLHYGLPVVVKLLHPPSHWPLIKATVGLIRNLALCPANHAPLREQGAIPRLVQLLVRAHQDTQRRTSMGGTQQQFVEGVRMEEIVEGCTGALHILARDVHNRIVIRGLNTIPLFVQLLYSPIENIQRVAAGVLCELAQDKEAAEAIEAEGATAPLTELLHSRNEGVATYAAAVLFRMSEDKPQDYKKRLSVELTSSLFRTEPMAWNETADLGLDIGAQGEALGYRQDDPSYRSFHSGGYGQDALGMDPMMEHEMGGHHPGADYPVDGLPDLGHAQDLMDGLPPGDSNQLAWFDTDL
B1: the binding entry is “binds”.

The record behind these values is article PMC7820456.
